System: IKr
Experiment: IKr tail current in zebrafish ventricular myocytes
Format: cell-based
Experimental: The outward K^+ current kKr was measured according to the protocol of Nemtsas et al. using identical extracellular and pipette solutions.” In brief, IK, was activated by clamping the membrane potential from a holding potential of −50 mV for 1000 ms to different levels in 5 mV steps. IKr was obtained as the tail current upon repolarization to −50 mV after the 1000 ms conditioning steps. Contaminating ICaL was inhibited by nisoldipine (1 μM). Addition of the specific IKr blocker E4031 identified the tail current as IKr.^17
The outward K+ current IKr was measured according to the protocol of Nemtsas et al. (34) using identical extracellular and pipette solutions (see on-line supplement). In brief, IKr was activated by clamping the membrane potential from a holding potential of −50 mV for 1000 ms to different levels in 5 mV steps. IKr was obtained as the tail current upon repolarization to −50 mV after the 1000 ms conditioning steps. Interfering ICa,L was inhibited by nisoldipine (1 μM). Addition of the specific IKr blocker E4031 identified the tail current as IKr (35).
Measurements of IKr: Composition of extracellular solution (mmoles/Liter): 120 Na+, 5.4 K+, 0.5 Ca2+, 2 Mg2+, 130.4 Cl—, 10 HEPES, 10 glucose at pH=7.3 (adjusted with KOH), 1 mol/1 Nisoldipine. […]

Structure (SMILES): Cc1cccc(CCN2CCC(C(=O)c3ccc(NS(C)(=O)=O)cc3)CC2)n1 [E4031]
- Inhibition of IKr tail current: complete inhibition

Reference: US20160051514A1, “METHODS FOR TREATMENT OF CARDIOMYOPATHY” (THE BRIGHAM AND WOMEN'S HOSPITAL, INC., priority 2013, published 2016)
